Test results published in US9206129B2, “Agent for treatment of eye diseases” (Daito Chemix Corporation, priority 2010, dated 2015).
“Also recorded” adds a separate entry of the source. At least one compound was matched to its structure with a doubt left.

Key:
Type in all cases: in vivo, mouse
[1] = test system: B6.Cg-Tg (Thy 1-CFP) 23Jrs/J mice; experiment: NMDA intravitreal injection in Thy1-CFP mice, oral administration: number of ganglion neurons; settings: NMDA 2 nmol intravitreal, 50 mg/kg/day orally, one day after the injection, vs physiological saline; sodium salt
DBA/2J mice [2] = experiment: DBA/2J mice, model of secondary angle-closure glaucoma: OCT and HE-stained retinae; settings: 50 mg/kg/day orally, vs physiological saline; for thickness of the nerve fiber layer: 7-month-old DBA/2J mice; for thickness of the inner retinal layer: 8-month-old DBA/2J mice
[3] = test system: GLAST-deficient (−/−)/Thy 1-CFP mice; experiment: GLAST-deficient (-/-)/Thy 1-CFP mice, model of normal tension glaucoma: number of ganglion neurons; settings: 21-day-old GLAST−/− mice, 50 mg/kg/day intraperitoneally, vs physiological saline; sodium salt
DBA/2J mice [4] = experiment: Intraocular pressure in DBA/2J mice (TonoLab tonometer); settings: vs physiological saline, Dunnett's rank test
Procedure: As a model of secondary angle-closure glaucoma, the DBA/2J mice (Anderson, M. G. et al; BMC Genetics (2001)) were employed. The mice were administered orally with 50 mg/kg/day of the compound of Synthetic Example 32 or 53 (Compound 32 or 53, respectively) daily after two months of age. The tomographs of retinae (n=22 to 32 eyes) were obtained in the 6, 7, 8, 9 and 10-month-old mice with the optical coherence tomography (OCT) (Multiline OCT, Heidelberg Engineering) (FIGS. 1 and 2: The OCT images of the retinae of the 8-month-old mice, FIG. 3: The evaluation of the optic nerve cupping in the 7 to 10-month-old mice). The mice in the control group were administered orally with the physiological saline. The eyeballs were enucleated at 10 months of age, and retinae were observed after hematoxylin-eosin (HE) staining (FIG. 4: The micrographs of retinae of the […] mice after HE staining). The thickness of the inner retinal layers and the nerve fiber layers was determined from the OCT images (FIG. 5: The thickness of the nerve fiber layers of the 7-month-old mice; FIG. 6: The thickness of the inner retinal layers of the 8-month-old mice; FIG. 7: The time course of the thickness of the inner retinal layers). […]
Besides, the intraocular pressure was measured with TonoLab (M. E. Technica) tonometer under general anesthesia monthly from 2 months of age. […]

rd10 mice = experiment: rd10 mice, model of retinitis pigmentosa: OCT, electroretinogram, HE-stained retinae; settings: 50 mg/kg/day intraperitoneally; for structure of the outer segment in the retinal section: 33-day-old rd10 mice; for layer of photoreceptor cells in OCT images / reaction to the photic stimulation in the electroretinogram / thickness of the entire retina, time course: rd10 mice; for layer of photoreceptor cells in OCT images / reaction to the photic stimulation in the electroretinogram: 25 and 29 days of age; for thickness of the entire retina, time course: OCT, vs physiological saline
Procedure: As a model of retinitis pigmentosa, the rd10 mice (B6.CXB1-Pde6b^rd10/J (purchased from Jackson Laboratory (Bar Harbor, Me.), Chang B. et al; Vision Res (2007)) were employed. In the mouse model, the rod photoreceptors are completely disappeared within 2 months after birth. The mice were administered intraperitoneally with 50 mg/kg/day of the compound of Synthetic Example 32 or 53 (Compound 32 or 53, respectively) daily from 7 days of age. The tomographs of the retinae were obtained in the 21, 25, 29 and 33-day-old mice with the optical coherence tomography (OCT) (FIGS. 15 and 17: The OCT images of the mice administered with Compound 32 at 25 and 29 days of age; FIGS. 19 and 21: The OCT images of the mice administered with Compound 53 at 25 and 29 days of age). The 21-, 25-, 29- and 33-day-old mice were subjected to dark adaptation and given 3.0 cd/s/m^2 of photic stimulations via a LED-type corneal-contact electrode (Mayo) by LS-W (Mayo). The electroretinogram (ERG) was recorded and analyzed with PowerLab 2/25 (AD Instruments, New South Wales, Australia) to measure the b-wave amplitudes (N=27-37 eyes) (FIGS. 16, 18, 24: The ERG of the 25-, 29- and 33-day-old mice administered with Compound 32; FIGS. 20, 22, 26: The ERG of the 25-, 29- and 33-day-old mice administered with Compound 53). The mice in the control group were administered orally with the physiological saline. The eyeballs were enucleated at 33 days of age, and the retinae were observed after HE staining (FIG. 23: The micrographs of the retinae of the 33-day old mice administered with Compound 32 after HE staining; FIG. 25: The micrographs of the retinae of the 33-day old mice administered with Compound 53 after HE staining).

[5] = test system: GLAST-deficient (+/−)/Thy 1-CFP mice; experiment: GLAST-deficient (+/-)/Thy 1-CFP mice, normal tension glaucoma with slow progression: number of ganglion neurons; settings: 12-month-old GLAST+/− mice, 50 mg/kg/day, vs physiological saline; sodium salt

SMILES	number of the ganglion neurons (flat-mounted retinae) [1]	thickness of the nerve fiber layer (DBA/2J mice [2])	thickness of the inner retinal layer (DBA/2J mice [2])	number of the ganglion neurons [3]	difference in the intraocular pressure among the groups (DBA/2J mice [4])	structure of the outer segment in the retinal section (rd10 mice)	layer of photoreceptor cells in OCT images (rd10 mice)	reaction to the photic stimulation in the electroretinogram (rd10 mice)	thickness of the entire retina, time course (rd10 mice)	number of the ganglion neurons (flat-mounted retinae) [5]
CCCCOc1c(C=O)cc(C)cc1-c1ccc(/N=N/c2cc(S(=O)(=O)[O-])c3ccccc3c2N)cn1.[Na+] [Example 53, 4-amino-3-[6-(3-formyl-2-butoxy-5-methylphenyl)pyridine-3-ylazo]naphthalene-1-sulfonic acid sodium salt]	significant difference; also recorded: significantly more	significant difference	significant difference	significant difference; also recorded: significantly more	No significant difference	remained	maintained	reaction to the photic stimulation was observed	significant difference	significant difference; also recorded: significantly more
Cc1cc(F)ccc1-c1ccc(/N=N/c2cc(S(=O)(=O)[O-])c3ccccc3c2N)cn1.[Na+] [Example 32, 4-amino-3-[6-(4-fluoro-2-methylphenyl)pyridine-3-ylazo]naphthalene-1-sulfonic acid sodium salt]	significant difference; also recorded: significantly more	significant difference	significant difference	significant difference; also recorded: significantly more	No significant difference	remained	maintained	reaction to the photic stimulation was observed	significant difference	significant difference; also recorded: significantly more
